According to patent publication US20050153872A1, “Methods and compositions for the treatment of infection” (priority 2004, published 2005):
Some results were stated once for a whole list of compounds, not compound by compound.

B1: Ph-SA1: Colicin Ia linked to the AgrDI pheromone of S. aureus (protein)
chain: SDPVRITNPGAESLGYDSDGHEIMAVDIYVNPPRVDVFHGTPPAWSSFGNKTIWGGNEWVDDSPTRSDIEKRDKEITAYKNTLSAQQKENENKRTEAGKRLSAAIAAREKDENTLKTLRAGNADAADITRQEFRLLQAELREYGFRTEIAGYDALRLHTESRMLFADADSLRISPREARSLIEQAEKRQKDAQNADKKAADMLAEYERRKGILDTRLSELEKNGGAALAVLDAQQARLLGQQTRNDRAISEARNKLSSVTESLNTARNALTRAEQQLTQQKNTPDGKTIVSPEKFPGRSSTNHSIVVSGDPRFAGTIKITTSAVIDNRANLNYLLSHSGLDYKRNILNDRNPVVTEDVEGDKKIYNAEVAEWDKLRQRLLDARNKITSAESAVNSARNNLSARTNEQKHANDALNALLKEKENIRNQLSGINQKIAEEKRKQDELKATKDAINFTTEFLKSVSEKYGAKAEQLAREMAGQAKGKKIRNVEEALKTYEKYRADINKKINAKDRAAIAAALESVKLSDISSNLNRFSRGLGYAGKFTSLADWITEFGKAVRTENWRPLFVKTETIIAGNAATALVALVFSILTGSALGIIGYGLLMAVTGALIDESLVEKANKFWGIYSTCDFIM
modifications: Colicin attached to Pheromone peptide encoding Staphylococcus aureus AgrDI
B2: Ph-SP: Colicin Ia linked to ComC pheromone of S. pneumoniae (protein)
chain: SDPVARGITNPGAESLGYDSDGHEIMAVASPIYVASNPPRVASPVFHGTPPAWSSFGNKTIWGGNEWVASPDSPTRSDIEKRDKEITAYKNTLSAQQKENENKRTEAGKRLSAAIAAREKDENTLKTLRAGNADAADITRQEFRLLQAELREYGFRTEIAGYDALRLHTESRMLFADADSLRISPREARSLIEQAEKRQKDAQNADKKAADMLAEYERRKGILDTRLSELEKNGGAALAVLDAQQARLLGQQTRNDRAISEARNKLSSVTESLNTARNALTRAEQQLTQQKNTPDGKTIVSPEKFPGRSSTNHSIVVSGDPRFAGTIKITTSAVIDNRANLNYLLSHSGLDYKRNILNDRNPVVTEDVEGDKKIYNAEVALAEWDKLRQRLLDARNKITSAESAVASNSARNNLSARTNEQKHANDALNALLKEKENIRNQLSGINQKIAEEKRKQDELKATKDAINFTTEFLKSVSEKYGAKAEQLAREMAGQAKGKKIRNVEEALKTYEKYRADINKKINAKDRAAIAAALESVKLSDISSNLNRFSRGLGYAGKFTSLADWITEFGKAVARGTENWRPLFVKTETIIAGNAATALVALALVFSILTGSALGIIGYGLLMAVTGALIDESLVEKANKFWGIEMRLSKFFRDFILQRKK
modifications: colicin Ia attached to streptococcus pneumoniae polypeptide pheromone

Columns and labels:
[1] = tested on: S. epidermidis BQIOC 26069; assay type: cell-based; settings: all agents at 2 ug/ml
Method: All agents were at 2 ug/ml.

[2] = tested on: Penicillin-sensitive S. Aureus strain ATCC 25923; assay type: cell-based; settings: all agents 100 ng/ml; S. aureus ATCC 25923
[3] = tested on: S. pneumoniae BQIOC 31201 (non-resistant); settings: 5 ug/ml

Molecule	inhibition of cell growth [1]	inhibition of cell growth [2]	inhibition of cell growth [3]
sodium penicillin	more than 90%	more than 90%	more than 90%
B1	–	more than 90%	–
B2	–	–	more than 90%
